These are yes or no findings as the source states them, for the method shown. Binding seen in cells or lysates may run through a third protein. For some assays here: A result given as binding can be weak or reduced; the word gives no strength.
Experiments:
[1] = biological target: T1, Quaking (QKI) (mouse (endogenous in sperm nuclei)) (UniProt Q9QYS9); test: co-IP; protein fraction of the RIP assay: lysate of SRN (RIP lysis buffer: 50 mM Tris-HCl pH 7.4, 150 mM NaCl, 5 mM EDTA, 1% NP-40, 0.1% SDS, with RNase inhibitors) incubated with QKI Ab or IgG at 4°C overnight, Protein A/G agarose beads, western blot for Gelsolin; caput SRN of WT and CB1-/- mice and cauda SRN of CB1-/- mice
T1 sequence: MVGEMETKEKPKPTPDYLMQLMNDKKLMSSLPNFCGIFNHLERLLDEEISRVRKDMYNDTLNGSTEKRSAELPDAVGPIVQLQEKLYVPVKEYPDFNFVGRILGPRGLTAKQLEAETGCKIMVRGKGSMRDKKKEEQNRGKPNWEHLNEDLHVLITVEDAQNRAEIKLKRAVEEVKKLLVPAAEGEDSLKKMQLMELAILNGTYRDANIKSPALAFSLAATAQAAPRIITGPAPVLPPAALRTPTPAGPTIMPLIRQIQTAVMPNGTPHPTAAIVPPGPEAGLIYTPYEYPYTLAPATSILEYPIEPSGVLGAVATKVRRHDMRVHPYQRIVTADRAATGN

Sequences of proteins named here, by UniProt entry; tags and fusion partners are left off. A change or cut given only in a name is not applied to a line headed by its entry.
UniProt P13020: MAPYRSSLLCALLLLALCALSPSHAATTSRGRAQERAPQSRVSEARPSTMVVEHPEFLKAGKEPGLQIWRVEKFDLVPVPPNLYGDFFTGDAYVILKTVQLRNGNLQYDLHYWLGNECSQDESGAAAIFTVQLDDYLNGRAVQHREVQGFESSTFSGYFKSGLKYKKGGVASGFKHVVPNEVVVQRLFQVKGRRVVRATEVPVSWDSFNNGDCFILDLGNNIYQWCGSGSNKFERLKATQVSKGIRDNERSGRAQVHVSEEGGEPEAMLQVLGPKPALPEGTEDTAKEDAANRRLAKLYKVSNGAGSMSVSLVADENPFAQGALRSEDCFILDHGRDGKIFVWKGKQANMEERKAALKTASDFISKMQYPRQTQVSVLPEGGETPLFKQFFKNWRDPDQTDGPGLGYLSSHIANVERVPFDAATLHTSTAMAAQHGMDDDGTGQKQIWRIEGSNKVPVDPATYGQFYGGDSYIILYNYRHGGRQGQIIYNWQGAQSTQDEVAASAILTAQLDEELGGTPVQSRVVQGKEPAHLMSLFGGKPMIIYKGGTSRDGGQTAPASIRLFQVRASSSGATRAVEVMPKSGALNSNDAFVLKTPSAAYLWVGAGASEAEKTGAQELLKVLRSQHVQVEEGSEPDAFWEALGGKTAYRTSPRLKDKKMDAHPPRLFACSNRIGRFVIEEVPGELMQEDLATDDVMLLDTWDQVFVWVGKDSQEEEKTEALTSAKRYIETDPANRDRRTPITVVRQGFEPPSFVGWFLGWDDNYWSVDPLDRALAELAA

[2] = biological target: T1, Quaking (QKI) (mouse (endogenous in sperm nuclei)); test: co-IP; same RIP protein fraction (QKI Ab, Protein A/G agarose beads, western blot for Gelsolin), cauda SRN of WT mice

binding [1]: binds
Substance: Gelsolin (from UniProt P13020)
binding [2]: no binding (only in cauda SRN of WT mice)

Reference: article PMC9379403
